Some of the results follow.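 How the source made its calls: active = dose-dependent thermal stabilisation significant by F-test of dose-response against flat model at 10% FDR; inactive = not significant.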
Compound: Nc1nc2c(ncn2[C@@H]2O[C@H](COP(=O)(O)OP(=O)(O)OP(=O)(O)O)[C@@H](O)[C@H]2O)c(=O)[nH]1
Test: dose-dependent thermal stabilisation call (2D-TPP, DLPTP, 10% FDR) (binary (1 = stabilised)); higher = stabilised by the compound
Settings: system: Jurkat gel-filtered lysate; concentration range 1-500 µM

Protein sequences, listed by entry. Tags and fused reporters are not part of them. Lines headed by an entry give the natural chain unless they say otherwise; changes in a name come on top.
UniProt Q9Y4C1: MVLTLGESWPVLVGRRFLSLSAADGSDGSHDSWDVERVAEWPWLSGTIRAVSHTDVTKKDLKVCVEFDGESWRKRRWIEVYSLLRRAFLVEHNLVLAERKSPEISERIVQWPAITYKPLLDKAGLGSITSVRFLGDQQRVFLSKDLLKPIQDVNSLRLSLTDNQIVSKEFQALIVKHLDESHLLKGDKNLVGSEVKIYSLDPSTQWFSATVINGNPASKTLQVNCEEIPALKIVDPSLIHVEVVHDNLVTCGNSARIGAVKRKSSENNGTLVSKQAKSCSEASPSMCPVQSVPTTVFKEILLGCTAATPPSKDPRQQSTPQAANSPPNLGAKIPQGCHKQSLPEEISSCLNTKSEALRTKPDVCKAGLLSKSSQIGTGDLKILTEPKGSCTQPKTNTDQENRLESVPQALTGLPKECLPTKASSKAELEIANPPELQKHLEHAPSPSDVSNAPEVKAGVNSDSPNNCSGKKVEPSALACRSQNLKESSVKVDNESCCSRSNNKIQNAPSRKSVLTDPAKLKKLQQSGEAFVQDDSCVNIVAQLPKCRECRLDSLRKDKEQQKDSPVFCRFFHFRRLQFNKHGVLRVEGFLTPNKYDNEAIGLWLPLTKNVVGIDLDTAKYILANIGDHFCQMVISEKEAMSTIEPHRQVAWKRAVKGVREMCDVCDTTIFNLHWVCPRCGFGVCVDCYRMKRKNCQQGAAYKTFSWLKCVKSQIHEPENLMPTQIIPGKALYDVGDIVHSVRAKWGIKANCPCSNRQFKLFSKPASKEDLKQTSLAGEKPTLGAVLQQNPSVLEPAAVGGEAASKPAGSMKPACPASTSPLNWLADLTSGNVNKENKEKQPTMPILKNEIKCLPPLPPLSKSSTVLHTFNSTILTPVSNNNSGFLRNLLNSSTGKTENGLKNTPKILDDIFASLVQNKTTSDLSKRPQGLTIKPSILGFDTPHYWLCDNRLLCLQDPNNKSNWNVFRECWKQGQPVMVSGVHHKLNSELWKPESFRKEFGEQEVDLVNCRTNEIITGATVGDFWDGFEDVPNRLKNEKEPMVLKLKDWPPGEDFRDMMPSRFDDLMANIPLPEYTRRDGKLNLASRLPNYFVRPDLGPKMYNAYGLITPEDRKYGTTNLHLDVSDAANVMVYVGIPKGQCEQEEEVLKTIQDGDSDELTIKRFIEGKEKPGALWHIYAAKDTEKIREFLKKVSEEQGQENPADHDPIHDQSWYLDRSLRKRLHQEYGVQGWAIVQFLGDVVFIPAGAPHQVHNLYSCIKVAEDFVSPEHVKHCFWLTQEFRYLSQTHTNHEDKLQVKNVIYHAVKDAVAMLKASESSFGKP
UniProt Q9NQT8: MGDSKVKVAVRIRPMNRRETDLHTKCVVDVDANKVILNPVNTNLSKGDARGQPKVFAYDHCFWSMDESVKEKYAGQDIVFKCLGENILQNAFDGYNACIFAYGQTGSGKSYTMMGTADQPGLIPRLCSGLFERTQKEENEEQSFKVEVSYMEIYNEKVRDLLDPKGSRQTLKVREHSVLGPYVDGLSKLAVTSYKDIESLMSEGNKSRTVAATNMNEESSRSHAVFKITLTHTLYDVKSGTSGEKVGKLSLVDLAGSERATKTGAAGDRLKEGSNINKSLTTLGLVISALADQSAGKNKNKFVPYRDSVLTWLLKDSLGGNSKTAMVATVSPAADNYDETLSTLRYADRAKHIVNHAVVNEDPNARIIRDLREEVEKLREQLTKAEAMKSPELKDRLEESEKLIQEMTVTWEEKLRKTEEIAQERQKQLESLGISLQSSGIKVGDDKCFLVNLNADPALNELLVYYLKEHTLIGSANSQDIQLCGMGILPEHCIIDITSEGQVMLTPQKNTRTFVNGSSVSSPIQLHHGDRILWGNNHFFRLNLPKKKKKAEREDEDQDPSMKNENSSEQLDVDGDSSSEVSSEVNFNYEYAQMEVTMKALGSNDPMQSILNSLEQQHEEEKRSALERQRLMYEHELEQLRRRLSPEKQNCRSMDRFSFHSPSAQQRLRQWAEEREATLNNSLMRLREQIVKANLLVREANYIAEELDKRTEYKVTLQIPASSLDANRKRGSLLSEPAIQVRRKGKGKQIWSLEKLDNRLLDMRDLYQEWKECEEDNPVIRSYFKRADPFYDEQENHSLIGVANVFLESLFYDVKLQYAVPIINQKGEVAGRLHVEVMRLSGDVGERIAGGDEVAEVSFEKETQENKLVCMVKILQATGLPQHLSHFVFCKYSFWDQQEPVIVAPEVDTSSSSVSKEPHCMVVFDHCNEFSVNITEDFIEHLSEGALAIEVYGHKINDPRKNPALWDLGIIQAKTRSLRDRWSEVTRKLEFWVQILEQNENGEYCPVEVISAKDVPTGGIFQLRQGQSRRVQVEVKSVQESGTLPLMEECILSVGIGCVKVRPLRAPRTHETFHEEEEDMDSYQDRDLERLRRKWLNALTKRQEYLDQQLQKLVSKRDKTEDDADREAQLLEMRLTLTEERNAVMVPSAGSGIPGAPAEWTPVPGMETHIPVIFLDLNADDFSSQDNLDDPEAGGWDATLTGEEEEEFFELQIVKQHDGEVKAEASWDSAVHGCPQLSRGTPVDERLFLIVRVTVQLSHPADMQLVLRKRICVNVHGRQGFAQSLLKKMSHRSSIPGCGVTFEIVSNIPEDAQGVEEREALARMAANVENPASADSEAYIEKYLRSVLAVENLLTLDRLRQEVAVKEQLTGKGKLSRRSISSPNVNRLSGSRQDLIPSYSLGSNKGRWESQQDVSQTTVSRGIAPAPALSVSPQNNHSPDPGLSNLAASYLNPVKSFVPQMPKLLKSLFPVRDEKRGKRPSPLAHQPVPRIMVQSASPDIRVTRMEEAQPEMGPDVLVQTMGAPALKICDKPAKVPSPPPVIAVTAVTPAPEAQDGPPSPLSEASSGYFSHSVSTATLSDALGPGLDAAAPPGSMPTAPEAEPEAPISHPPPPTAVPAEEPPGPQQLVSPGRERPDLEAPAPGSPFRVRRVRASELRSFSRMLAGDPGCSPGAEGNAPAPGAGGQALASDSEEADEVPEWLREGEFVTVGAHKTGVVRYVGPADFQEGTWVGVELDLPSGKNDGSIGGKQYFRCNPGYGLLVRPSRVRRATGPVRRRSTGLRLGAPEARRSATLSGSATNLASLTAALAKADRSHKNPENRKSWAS
UniProt Q9NVH2, whole entry: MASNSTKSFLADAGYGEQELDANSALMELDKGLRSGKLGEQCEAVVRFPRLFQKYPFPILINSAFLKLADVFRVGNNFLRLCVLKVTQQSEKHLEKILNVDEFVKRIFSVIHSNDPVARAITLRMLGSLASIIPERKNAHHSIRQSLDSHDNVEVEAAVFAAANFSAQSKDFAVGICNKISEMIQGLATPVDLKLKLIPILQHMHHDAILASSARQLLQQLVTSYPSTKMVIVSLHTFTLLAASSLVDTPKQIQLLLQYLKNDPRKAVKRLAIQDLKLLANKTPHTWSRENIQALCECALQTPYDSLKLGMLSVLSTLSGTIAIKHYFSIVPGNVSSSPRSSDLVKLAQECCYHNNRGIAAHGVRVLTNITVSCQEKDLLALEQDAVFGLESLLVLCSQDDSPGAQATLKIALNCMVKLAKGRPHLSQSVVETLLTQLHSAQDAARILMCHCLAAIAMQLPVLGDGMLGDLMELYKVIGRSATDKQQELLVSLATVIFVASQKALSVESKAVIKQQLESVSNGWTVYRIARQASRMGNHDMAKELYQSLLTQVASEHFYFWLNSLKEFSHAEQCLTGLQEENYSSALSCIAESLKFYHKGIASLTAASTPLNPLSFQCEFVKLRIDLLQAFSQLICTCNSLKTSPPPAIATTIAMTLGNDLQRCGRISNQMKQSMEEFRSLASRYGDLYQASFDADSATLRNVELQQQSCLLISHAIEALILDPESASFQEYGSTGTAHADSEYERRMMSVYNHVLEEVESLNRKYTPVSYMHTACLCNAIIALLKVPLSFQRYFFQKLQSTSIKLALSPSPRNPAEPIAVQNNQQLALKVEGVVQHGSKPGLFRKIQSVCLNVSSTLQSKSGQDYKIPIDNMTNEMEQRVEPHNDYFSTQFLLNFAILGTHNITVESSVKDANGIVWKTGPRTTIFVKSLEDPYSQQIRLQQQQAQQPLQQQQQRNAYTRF
UniProt Q7Z5L9: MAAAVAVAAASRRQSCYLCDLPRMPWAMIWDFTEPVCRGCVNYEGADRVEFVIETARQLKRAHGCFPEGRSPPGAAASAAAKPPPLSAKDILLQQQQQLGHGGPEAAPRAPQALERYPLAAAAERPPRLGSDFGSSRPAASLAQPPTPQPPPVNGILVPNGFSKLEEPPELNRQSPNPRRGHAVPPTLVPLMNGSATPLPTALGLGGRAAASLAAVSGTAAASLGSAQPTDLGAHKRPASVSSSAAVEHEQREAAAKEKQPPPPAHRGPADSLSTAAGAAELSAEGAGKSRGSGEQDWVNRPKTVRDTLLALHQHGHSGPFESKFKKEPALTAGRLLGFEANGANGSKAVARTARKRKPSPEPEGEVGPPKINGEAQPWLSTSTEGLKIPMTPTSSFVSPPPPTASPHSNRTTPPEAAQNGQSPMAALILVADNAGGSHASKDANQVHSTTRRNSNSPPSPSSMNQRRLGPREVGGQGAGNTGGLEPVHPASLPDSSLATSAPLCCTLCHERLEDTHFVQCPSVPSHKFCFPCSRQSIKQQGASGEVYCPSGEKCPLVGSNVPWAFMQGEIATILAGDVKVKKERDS
UniProt P52732: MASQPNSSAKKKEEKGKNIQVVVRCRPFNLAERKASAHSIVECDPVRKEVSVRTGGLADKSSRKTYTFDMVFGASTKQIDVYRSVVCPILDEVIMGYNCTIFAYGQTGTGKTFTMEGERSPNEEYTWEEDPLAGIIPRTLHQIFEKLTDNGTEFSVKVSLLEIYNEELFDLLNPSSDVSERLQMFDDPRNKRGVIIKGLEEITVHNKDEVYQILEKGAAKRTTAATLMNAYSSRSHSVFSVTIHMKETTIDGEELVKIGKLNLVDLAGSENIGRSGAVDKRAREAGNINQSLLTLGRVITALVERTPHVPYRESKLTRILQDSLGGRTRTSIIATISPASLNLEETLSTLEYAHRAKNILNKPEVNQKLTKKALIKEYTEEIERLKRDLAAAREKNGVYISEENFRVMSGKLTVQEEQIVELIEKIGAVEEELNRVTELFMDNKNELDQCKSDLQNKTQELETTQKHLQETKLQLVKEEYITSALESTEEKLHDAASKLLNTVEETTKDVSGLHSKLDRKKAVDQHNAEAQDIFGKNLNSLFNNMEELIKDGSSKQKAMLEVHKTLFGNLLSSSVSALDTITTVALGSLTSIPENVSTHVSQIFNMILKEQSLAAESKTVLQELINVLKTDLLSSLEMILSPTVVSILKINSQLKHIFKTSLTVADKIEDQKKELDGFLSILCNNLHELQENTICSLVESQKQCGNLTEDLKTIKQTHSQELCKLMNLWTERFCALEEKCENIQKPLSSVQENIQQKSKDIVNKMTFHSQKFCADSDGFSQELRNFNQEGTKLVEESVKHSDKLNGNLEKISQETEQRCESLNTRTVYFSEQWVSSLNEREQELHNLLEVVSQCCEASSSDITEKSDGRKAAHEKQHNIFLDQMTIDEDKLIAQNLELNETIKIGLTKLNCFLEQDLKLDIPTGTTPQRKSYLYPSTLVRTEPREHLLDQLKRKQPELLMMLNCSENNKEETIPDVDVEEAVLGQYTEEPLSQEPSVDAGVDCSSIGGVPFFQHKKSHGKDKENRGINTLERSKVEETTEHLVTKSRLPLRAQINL
UniProt Q86V97: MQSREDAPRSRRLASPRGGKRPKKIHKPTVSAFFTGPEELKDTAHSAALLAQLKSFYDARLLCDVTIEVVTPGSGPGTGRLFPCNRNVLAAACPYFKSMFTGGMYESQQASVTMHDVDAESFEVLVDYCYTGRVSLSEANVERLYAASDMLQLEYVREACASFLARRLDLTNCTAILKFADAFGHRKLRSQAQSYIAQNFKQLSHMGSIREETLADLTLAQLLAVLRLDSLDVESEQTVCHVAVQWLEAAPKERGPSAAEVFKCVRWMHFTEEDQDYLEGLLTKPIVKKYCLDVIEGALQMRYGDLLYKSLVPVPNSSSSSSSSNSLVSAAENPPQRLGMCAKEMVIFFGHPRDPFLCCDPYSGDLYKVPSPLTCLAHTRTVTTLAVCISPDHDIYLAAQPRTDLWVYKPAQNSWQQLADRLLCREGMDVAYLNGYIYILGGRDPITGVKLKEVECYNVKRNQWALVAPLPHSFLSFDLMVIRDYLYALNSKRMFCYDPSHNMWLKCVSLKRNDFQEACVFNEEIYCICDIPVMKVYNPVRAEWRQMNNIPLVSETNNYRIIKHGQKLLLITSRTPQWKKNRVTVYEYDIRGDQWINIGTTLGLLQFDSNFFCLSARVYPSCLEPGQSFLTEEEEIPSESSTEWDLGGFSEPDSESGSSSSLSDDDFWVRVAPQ

Target | dose-dependent thermal stabilisation call
LONP1 (UniProt P36776) | inactive: 0
ING4 (UniProt Q9UNL4) | inactive: 0
LIG1 (UniProt P18858) | inactive: 0
KIAA1211 (UniProt Q6ZU35) | inactive: 0
IPO11 (UniProt Q9UI26) | inactive: 0
KPNA2 (UniProt P52292) | active: 1
KTN1 (UniProt Q86UP2) | inactive: 0
KCNAB2 (UniProt Q13303) | inactive: 0
IFI16 (UniProt Q16666) | inactive: 0
KLHL11 (UniProt Q9NVR0) | inactive: 0
KDM3A (UniProt Q9Y4C1) | active: 1
IPO8 (UniProt O15397) | inactive: 0
JMY (UniProt Q8N9B5) | inactive: 0
LARP7 (UniProt Q4G0J3) | active: 1
INTS12 (UniProt Q96CB8) | inactive: 0
IRGQ (UniProt Q8WZA9) | inactive: 0
IDH2 (UniProt P48735) | inactive: 0
KIF13B (UniProt Q9NQT8) | inactive: 0

A run of entries of the results above, for reference:
Target | dose-dependent thermal stabilisation call
KLHL11 (UniProt Q9NVR0) | inactive: 0
KDM3A (UniProt Q9Y4C1) | active: 1

Continued:

Target | dose-dependent thermal stabilisation call
KIF1BP (UniProt Q96EK5) | inactive: 0
INTS7 (UniProt Q9NVH2) | inactive: 0
IPCEF1 (UniProt Q8WWN9) | inactive: 0
HTRA2 (UniProt O43464) | inactive: 0
L3HYPDH (UniProt Q96EM0) | inactive: 0
LEO1 (UniProt Q8WVC0) | inactive: 0
JPT2 (UniProt Q9H910) | inactive: 0
JAKMIP1 (UniProt Q96N16) | inactive: 0
ITSN1 (UniProt Q15811) | inactive: 0
KCTD5 (UniProt Q9NXV2) | inactive: 0
KCTD10 (UniProt Q9H3F6) | inactive: 0
KPNA4 (UniProt O00629) | inactive: 0
INTS4 (UniProt Q96HW7) | inactive: 0
IRF2BP2 (UniProt Q7Z5L9) | inactive: 0
KIF11 (UniProt P52732) | inactive: 0
LIN9 (UniProt Q5TKA1) | inactive: 0
KBTBD6 (UniProt Q86V97) | inactive: 0

From the supplement of paper PMC7666118
